# ± gives the standard deviation of the averaged measurements. Some of the results follow. Only hits are listed; about a third recur on repeated control peptides.
# Protein sequences, listed by entry. Tags and fused reporters are not part of them.
# NELFE, P18615, UniProt P18615, whole entry: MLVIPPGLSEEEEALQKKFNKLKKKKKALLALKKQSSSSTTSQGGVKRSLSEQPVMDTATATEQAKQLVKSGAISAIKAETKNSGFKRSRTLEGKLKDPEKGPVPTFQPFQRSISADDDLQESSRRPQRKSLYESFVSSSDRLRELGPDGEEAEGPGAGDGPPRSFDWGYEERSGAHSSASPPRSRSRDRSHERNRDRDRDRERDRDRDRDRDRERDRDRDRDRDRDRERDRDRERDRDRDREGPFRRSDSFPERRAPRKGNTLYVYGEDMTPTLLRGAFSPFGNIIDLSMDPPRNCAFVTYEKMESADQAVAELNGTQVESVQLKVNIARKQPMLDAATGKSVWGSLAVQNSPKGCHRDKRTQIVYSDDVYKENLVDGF
# CAMK2D, Q13557, UniProt Q13557, whole entry: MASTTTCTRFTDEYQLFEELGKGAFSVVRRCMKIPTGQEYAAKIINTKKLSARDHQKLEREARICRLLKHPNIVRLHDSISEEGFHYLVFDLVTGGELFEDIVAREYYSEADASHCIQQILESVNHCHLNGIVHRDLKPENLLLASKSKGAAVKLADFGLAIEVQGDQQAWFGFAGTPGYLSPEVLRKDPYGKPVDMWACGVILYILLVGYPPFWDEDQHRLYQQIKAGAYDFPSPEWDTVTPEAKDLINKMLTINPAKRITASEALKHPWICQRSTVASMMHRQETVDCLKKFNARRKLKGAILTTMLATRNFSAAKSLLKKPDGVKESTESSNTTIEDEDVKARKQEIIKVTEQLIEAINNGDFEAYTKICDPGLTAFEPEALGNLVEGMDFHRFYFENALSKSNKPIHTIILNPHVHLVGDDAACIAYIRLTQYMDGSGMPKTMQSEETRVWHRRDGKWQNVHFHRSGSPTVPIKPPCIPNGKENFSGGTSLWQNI
# PLK1, P53350, UniProt P53350, whole entry: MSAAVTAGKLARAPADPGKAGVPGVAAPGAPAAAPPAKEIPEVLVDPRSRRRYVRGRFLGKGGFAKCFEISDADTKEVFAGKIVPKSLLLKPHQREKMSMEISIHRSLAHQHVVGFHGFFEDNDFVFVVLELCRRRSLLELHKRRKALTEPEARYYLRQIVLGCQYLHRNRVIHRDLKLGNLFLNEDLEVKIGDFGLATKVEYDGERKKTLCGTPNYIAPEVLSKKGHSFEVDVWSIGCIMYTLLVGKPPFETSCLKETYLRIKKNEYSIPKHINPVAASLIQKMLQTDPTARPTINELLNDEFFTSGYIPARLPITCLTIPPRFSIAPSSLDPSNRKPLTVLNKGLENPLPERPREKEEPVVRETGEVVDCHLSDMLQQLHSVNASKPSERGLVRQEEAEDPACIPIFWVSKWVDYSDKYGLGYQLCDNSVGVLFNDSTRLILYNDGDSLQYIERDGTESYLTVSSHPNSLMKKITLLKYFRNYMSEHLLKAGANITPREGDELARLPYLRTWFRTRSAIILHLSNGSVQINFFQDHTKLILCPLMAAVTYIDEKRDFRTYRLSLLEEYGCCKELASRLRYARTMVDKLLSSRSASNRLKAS
# EIF3B, P55884, UniProt P55884, whole entry: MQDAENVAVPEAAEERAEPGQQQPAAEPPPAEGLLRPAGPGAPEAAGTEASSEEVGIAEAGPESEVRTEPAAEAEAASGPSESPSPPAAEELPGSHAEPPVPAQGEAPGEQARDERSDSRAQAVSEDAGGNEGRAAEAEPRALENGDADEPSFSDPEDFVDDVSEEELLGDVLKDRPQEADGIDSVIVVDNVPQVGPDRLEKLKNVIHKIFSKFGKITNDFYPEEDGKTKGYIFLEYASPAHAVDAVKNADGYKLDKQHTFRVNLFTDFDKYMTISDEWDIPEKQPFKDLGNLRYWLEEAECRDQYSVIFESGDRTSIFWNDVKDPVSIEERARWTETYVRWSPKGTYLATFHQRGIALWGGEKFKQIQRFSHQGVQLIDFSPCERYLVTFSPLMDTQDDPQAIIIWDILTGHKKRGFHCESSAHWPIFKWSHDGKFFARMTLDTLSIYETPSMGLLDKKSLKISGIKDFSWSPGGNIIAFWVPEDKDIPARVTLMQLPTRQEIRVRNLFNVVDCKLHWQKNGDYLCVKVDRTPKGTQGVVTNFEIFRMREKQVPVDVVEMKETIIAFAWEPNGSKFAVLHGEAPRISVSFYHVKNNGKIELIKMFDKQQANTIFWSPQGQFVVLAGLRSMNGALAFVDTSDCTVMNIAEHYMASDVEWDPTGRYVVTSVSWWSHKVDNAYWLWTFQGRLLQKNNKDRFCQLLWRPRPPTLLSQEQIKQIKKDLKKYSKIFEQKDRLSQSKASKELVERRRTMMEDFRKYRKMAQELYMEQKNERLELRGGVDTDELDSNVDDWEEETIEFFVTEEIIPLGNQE
# MAPK1, P28482, UniProt P28482, whole entry: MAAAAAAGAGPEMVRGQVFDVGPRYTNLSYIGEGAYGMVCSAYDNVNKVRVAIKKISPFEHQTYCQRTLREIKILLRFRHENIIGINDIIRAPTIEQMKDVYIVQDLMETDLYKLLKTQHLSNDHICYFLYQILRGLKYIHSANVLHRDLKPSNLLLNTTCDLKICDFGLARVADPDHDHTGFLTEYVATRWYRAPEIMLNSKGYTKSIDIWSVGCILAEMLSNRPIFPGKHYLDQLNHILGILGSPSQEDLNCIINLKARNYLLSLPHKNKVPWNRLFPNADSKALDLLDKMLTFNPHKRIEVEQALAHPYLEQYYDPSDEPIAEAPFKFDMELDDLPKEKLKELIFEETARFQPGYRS
# PHB2, Q99623, UniProt Q99623, whole entry: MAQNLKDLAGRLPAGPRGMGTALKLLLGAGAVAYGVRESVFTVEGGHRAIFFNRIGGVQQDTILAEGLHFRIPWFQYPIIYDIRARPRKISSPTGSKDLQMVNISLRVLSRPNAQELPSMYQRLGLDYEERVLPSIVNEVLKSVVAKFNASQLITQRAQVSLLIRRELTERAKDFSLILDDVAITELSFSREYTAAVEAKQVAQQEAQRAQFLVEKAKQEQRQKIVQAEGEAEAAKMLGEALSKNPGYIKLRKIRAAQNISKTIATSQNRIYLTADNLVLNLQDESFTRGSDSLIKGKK
# RBBP4, Q09028, UniProt Q09028, whole entry: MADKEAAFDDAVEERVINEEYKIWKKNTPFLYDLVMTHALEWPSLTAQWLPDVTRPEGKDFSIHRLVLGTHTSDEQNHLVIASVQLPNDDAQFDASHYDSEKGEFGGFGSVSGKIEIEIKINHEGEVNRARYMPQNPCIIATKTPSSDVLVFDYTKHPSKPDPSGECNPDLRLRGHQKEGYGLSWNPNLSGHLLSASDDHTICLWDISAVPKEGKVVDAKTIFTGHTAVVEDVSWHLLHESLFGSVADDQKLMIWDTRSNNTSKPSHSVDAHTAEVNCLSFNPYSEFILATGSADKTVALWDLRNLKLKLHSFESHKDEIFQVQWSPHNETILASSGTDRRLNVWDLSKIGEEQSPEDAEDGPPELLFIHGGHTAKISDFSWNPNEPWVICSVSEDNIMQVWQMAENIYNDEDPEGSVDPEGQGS
# AURKB, Q96GD4, UniProt Q96GD4, whole entry: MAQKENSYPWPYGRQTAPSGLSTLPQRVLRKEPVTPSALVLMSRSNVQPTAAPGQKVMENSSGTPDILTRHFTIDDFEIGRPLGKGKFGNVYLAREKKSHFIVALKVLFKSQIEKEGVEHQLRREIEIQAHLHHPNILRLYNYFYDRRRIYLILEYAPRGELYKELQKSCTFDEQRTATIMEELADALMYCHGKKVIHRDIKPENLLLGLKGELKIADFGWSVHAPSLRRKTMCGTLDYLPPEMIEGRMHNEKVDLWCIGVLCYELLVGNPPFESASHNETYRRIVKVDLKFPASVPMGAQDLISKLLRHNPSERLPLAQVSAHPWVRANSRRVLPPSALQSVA
# NDUFA9, Q16795, UniProt Q16795, whole entry: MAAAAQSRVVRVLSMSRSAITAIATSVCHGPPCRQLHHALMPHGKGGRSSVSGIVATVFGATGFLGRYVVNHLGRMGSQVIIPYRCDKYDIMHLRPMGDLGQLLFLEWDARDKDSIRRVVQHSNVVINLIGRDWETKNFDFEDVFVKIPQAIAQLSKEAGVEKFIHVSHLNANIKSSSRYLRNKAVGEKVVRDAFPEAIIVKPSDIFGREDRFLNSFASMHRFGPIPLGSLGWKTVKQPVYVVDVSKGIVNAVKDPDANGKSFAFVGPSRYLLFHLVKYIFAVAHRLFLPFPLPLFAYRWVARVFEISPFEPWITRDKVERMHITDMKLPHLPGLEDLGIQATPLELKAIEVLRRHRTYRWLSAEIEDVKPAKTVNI
# PIN1, Q13526, UniProt Q13526, whole entry: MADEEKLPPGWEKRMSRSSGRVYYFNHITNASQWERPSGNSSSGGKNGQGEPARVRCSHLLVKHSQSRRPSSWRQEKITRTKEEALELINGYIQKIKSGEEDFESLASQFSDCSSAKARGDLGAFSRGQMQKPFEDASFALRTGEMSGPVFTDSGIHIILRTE
# DIDO1, Q9BTC0, UniProt Q9BTC0, whole entry: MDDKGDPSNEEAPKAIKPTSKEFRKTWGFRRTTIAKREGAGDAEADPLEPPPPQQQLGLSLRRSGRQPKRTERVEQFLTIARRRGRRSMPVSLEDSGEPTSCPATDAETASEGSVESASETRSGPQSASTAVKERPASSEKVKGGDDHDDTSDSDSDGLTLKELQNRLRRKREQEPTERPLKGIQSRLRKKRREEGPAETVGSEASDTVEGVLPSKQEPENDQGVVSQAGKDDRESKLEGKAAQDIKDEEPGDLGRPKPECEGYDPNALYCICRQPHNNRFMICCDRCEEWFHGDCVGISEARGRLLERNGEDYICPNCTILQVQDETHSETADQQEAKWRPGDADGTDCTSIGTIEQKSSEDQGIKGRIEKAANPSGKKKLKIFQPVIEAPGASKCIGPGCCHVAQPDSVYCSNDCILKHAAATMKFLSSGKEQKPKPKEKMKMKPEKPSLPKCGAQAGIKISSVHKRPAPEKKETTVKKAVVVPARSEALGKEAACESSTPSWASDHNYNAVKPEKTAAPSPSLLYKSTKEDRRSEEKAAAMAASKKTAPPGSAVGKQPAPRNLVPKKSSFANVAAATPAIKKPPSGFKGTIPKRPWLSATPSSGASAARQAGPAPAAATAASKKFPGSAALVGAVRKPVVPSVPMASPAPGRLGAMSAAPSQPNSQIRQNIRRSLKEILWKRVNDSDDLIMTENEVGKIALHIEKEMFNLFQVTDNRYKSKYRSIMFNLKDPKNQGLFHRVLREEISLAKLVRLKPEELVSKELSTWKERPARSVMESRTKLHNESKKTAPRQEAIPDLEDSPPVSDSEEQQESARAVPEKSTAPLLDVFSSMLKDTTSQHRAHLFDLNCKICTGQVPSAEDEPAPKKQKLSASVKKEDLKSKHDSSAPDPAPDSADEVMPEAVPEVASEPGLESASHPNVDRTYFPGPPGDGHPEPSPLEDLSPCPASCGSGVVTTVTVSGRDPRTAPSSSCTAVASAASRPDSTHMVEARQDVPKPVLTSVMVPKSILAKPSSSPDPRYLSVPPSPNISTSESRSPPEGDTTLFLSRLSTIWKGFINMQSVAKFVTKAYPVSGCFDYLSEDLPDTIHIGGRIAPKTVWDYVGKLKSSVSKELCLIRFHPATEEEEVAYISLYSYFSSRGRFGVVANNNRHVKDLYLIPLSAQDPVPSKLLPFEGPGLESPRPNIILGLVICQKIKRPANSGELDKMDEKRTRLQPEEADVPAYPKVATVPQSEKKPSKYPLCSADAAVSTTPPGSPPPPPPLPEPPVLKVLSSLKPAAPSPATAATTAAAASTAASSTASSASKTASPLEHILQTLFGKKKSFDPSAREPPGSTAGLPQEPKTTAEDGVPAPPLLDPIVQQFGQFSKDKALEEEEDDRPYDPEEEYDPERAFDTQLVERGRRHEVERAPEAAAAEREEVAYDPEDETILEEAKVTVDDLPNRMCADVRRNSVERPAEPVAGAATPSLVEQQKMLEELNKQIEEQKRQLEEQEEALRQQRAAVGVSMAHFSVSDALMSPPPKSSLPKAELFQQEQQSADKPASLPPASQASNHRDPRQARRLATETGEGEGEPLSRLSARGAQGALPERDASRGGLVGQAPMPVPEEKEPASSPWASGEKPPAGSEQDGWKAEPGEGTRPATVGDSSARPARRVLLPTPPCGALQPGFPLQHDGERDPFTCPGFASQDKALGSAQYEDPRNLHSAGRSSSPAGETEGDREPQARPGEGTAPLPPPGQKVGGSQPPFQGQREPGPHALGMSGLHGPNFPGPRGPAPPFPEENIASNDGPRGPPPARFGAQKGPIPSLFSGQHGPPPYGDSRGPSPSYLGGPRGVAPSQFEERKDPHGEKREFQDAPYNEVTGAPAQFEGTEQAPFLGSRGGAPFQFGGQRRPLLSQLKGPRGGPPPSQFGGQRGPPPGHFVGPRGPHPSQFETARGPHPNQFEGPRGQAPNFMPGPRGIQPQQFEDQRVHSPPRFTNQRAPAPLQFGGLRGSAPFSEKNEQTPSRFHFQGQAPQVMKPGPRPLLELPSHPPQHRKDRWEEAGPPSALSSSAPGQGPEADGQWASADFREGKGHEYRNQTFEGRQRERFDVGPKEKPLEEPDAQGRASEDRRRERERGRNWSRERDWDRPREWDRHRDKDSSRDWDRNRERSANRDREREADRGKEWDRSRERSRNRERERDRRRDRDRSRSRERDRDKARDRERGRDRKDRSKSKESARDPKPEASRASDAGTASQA
# Tests used:
# Test in all cases: PRISMA enrichment of interactor (LFQ) in peptide spot vs all other peptide spots (log2 fold change); higher = stronger / more specific binding of the interactor to the peptide
# [1] = biological target: ZNF503, Q96F45
# Protocol: (§1)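 PRISMA: 15-aa overlapping tiles (offset 8 aa) of 60 microproteins, plus SOS1/GLUT1 control peptides, were spot-synthesized on cellulose membranes in triplicate. Membranes were incubated with benzonase-treated HEK293T lysate, and bound proteins were identified by LC-MS/MS with LFQ. Enrichment is the log2 fold change of each protein in one spot versus all other spots. Only interactors passing the significance cutoff are listed.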
# [2] = biological target: ZRANB2, O95218
# Protocol: as §1
# [3] = biological target: ATXN2L, Q8WWM7
# Protocol: as §1
# [4] = biological target: C19orf53, Q9UNZ5
# Protocol: as §1
# [5] = biological target: CHD3, Q12873
# Protocol: as §1
# [6] = biological target: DBR1, Q9UK59
# Protocol: as §1
# [7] = biological target: GATAD2A, Q86YP4
# Protocol: as §1
# [8] = biological target: HAGH, Q16775
# Protocol: as §1
# [9] = biological target: LYZ, P61626
# Protocol: as §1
# [10] = biological target: MRPS18B, Q9Y676
# Protocol: as §1
# [11] = biological target: NELFE, P18615
# Protocol: as §1
# [12] = biological target: PUSL1, Q8N0Z8
# Protocol: as §1
# [13] = biological target: SRP14, P37108
# Protocol: as §1
# [14] = biological target: TRAP1, Q12931
# Protocol: as §1
# [15] = biological target: ZNF22, P17026
# Protocol: as §1
# [16] = biological target: ATXN7L3B, Q96GX2
# Protocol: as §1
# [17] = biological target: CAMK2D, Q13557
# Protocol: as §1
# [18] = biological target: HNRNPF, P52597
# Protocol: as §1
# [19] = biological target: MRPL44, Q9H9J2
# Protocol: as §1
# [20] = biological target: NDUFB7, P17568
# Protocol: as §1
# [21] = biological target: PLK1, P53350
# Protocol: as §1
# [22] = biological target: POLR2C, P19387
# Protocol: as §1
# [23] = biological target: RRS1, Q15050
# Protocol: as §1
# [24] = biological target: SCD, O00767
# Protocol: as §1
# [25] = biological target: SHROOM3, Q8TF72
# Protocol: as §1
# [26] = biological target: ZNF326, Q5BKZ1
# Protocol: as §1
# [27] = biological target: AURKAIP1, Q9NWT8
# Protocol: as §1
# [28] = biological target: DNAJB4, Q9UDY4
# Protocol: as §1
# [29] = biological target: EIF3B, P55884
# Protocol: as §1
# [30] = biological target: MAPK1, P28482
# Protocol: as §1
# [31] = biological target: MEPCE, Q7L2J0
# Protocol: as §1
# [32] = biological target: PDCD11, Q14690
# Protocol: as §1
# [33] = biological target: PHB2, Q99623
# Protocol: as §1
# [34] = biological target: RANBP2, P49792
# Protocol: as §1
# [35] = biological target: SAE1, Q9UBE0
# Protocol: as §1
# [36] = biological target: COPS6, Q7L5N1
# Protocol: as §1
# [37] = biological target: GATA3, P23771
# Protocol: as §1
# [38] = biological target: NFS1, Q9Y697
# Protocol: as §1
# [39] = biological target: POLD2, P49005
# Protocol: as §1
# [40] = biological target: RBBP4, Q09028
# Protocol: as §1
# [41] = biological target: AURKB, Q96GD4
# Protocol: as §1
# [42] = biological target: CNN3, Q15417
# Protocol: as §1
# [43] = biological target: GET4, Q7L5D6
# Protocol: as §1
# [44] = biological target: KRT18, P05783
# Protocol: as §1
# [45] = biological target: MYO1D, O94832
# Protocol: as §1
# [46] = biological target: NDUFA9, Q16795
# Protocol: as §1
# [47] = biological target: NUBP2, Q9Y5Y2
# Protocol: as §1
# [48] = biological target: PIN1, Q13526
# Protocol: as §1
# [49] = biological target: PRPF40A, O75400
# Protocol: as §1
# [50] = biological target: PTCD3, Q96EY7
# Protocol: as §1
# [51] = biological target: SMARCA5, O60264
# Protocol: as §1
# [52] = biological target: SMC5, Q8IY18
# Protocol: as §1
# [53] = biological target: SRP68, Q9UHB9
# Protocol: as §1
# [54] = biological target: SUB1, P53999
# Protocol: as §1
# [55] = biological target: TBCD, Q9BTW9
# Protocol: as §1
# [56] = biological target: VMP1, Q96GC9
# Protocol: as §1
# [57] = biological target: C1QBP, Q07021
# Protocol: as §1
# [58] = biological target: CD2AP, Q9Y5K6
# Protocol: as §1
# [59] = biological target: DIDO1, Q9BTC0
# Protocol: as §1
# [60] = biological target: DMAC2, Q9NW81
# Protocol: as §1
# [61] = biological target: EPB41L3, Q9Y2J2
# Protocol: as §1
# [62] = biological target: KLF16, Q9BXK1
# Protocol: as §1
# [63] = biological target: LAMA5, O15230
# Protocol: as §1
# [64] = biological target: MDC1, Q14676
# Protocol: as §1
# [65] = biological target: MLF2, Q15773
# Protocol: as §1
# [66] = biological target: MPDU1, O75352
# Protocol: as §1
# [67] = biological target: MRPL27, Q9P0M9
# Protocol: as §1
# [68] = biological target: NAP1L1, P55209
# Protocol: as §1
# [69] = biological target: NME1-NME2
# Protocol: as §1
# [70] = biological target: PDS5A, Q29RF7
# Protocol: as §1
# [71] = biological target: PWP1, Q13610
# Protocol: as §1
# [72] = biological target: RAB14, P61106
# Protocol: as §1
# [73] = biological target: RAB3GAP2, Q9H2M9
# Protocol: as §1
# [74] = biological target: RCN2, Q14257
# Protocol: as §1
# [75] = biological target: SGPP1, Q9BX95
# Protocol: as §1
# [76] = biological target: TMEM126A, Q9H061
# Protocol: as §1
# [77] = biological target: UBXN7, O94888
# Protocol: as §1
# [78] = biological target: YTHDF3, Q7Z739
# Protocol: as §1
# [79] = biological target: ZNF146, Q15072
# Protocol: as §1
binder,measurement,setting,value
WQGQVAKCTQPSQQG [RP11-140K17.3],PRISMA enrichment of interactor (log2),[1],3.72
same,PRISMA enrichment of interactor (log2),[2],6.71
SDSSDTSEGFRLHLE [NAV2-AS2_2],PRISMA enrichment of interactor (log2),[3],6.08
same,PRISMA enrichment of interactor (log2),[4],7.51
same,PRISMA enrichment of interactor (log2),[5],4.83
same,PRISMA enrichment of interactor (log2),[6],3.94
same,PRISMA enrichment of interactor (log2),[7],7.75
same,PRISMA enrichment of interactor (log2),[8],5.71
same,PRISMA enrichment of interactor (log2),[9],3.77
same,PRISMA enrichment of interactor (log2),[10],4.33
same,PRISMA enrichment of interactor (log2),[11],5.13
same,PRISMA enrichment of interactor (log2),[12],5.29
same,PRISMA enrichment of interactor (log2),[13],5.6
same,PRISMA enrichment of interactor (log2),[14],5.29
same,PRISMA enrichment of interactor (log2),[15],4.56
MVSRCLSEPVSLTAC [ABR],PRISMA enrichment of interactor (log2),[16],5.59
same,PRISMA enrichment of interactor (log2),[17],4.14
same,PRISMA enrichment of interactor (log2),[18],5.09
same,PRISMA enrichment of interactor (log2),[19],4.66
same,PRISMA enrichment of interactor (log2),[20],7.6
same,PRISMA enrichment of interactor (log2),[21],6.06
same,PRISMA enrichment of interactor (log2),[22],5.34
same,PRISMA enrichment of interactor (log2),[23],4.91
same,PRISMA enrichment of interactor (log2),[24],7.82
same,PRISMA enrichment of interactor (log2),[25],8.46
same,PRISMA enrichment of interactor (log2),[26],5.44
GWPTASGWTPAARAC [THAP7],PRISMA enrichment of interactor (log2),[27],4.23
same,PRISMA enrichment of interactor (log2),[28],6.15
same,PRISMA enrichment of interactor (log2),[29],4.5
same,PRISMA enrichment of interactor (log2),[30],4.62
same,PRISMA enrichment of interactor (log2),[31],4.36
same,PRISMA enrichment of interactor (log2),[32],4.96
same,PRISMA enrichment of interactor (log2),[33],4.66
same,PRISMA enrichment of interactor (log2),[34],5.55
same,PRISMA enrichment of interactor (log2),[35],4.1
QLRYTDRDFYFASIR [MIEF-MP],PRISMA enrichment of interactor (log2),[27],5.08
same,PRISMA enrichment of interactor (log2),[36],5.89
same,PRISMA enrichment of interactor (log2),[37],5.91
same,PRISMA enrichment of interactor (log2),[38],4.99
same,PRISMA enrichment of interactor (log2),[39],5.11
same,PRISMA enrichment of interactor (log2),[40],7.51
VTEARQRFHLGEGER [RP1-206D15.6],PRISMA enrichment of interactor (log2),[41],5.38
same,PRISMA enrichment of interactor (log2),[42],5.87
same,PRISMA enrichment of interactor (log2),[43],4.97
same,PRISMA enrichment of interactor (log2),[44],5.25
same,PRISMA enrichment of interactor (log2),[30],9.11
same,PRISMA enrichment of interactor (log2),[45],5.18
same,PRISMA enrichment of interactor (log2),[46],5.43
same,PRISMA enrichment of interactor (log2),[47],7.48
same,PRISMA enrichment of interactor (log2),[48],5.96
same,PRISMA enrichment of interactor (log2),[49],5.93
same,PRISMA enrichment of interactor (log2),[50],6.16
same,PRISMA enrichment of interactor (log2),[34],5.64
same,PRISMA enrichment of interactor (log2),[51],6.43
same,PRISMA enrichment of interactor (log2),[52],4.23
same,PRISMA enrichment of interactor (log2),[53],5.84
same,PRISMA enrichment of interactor (log2),[54],6.71
same,PRISMA enrichment of interactor (log2),[55],5.38
same,PRISMA enrichment of interactor (log2),[56],9.68
RLPQATARRGTPSRA [SLCO5A1],PRISMA enrichment of interactor (log2),[41],6.71
same,PRISMA enrichment of interactor (log2),[57],6.74
same,PRISMA enrichment of interactor (log2),[58],6.3
same,PRISMA enrichment of interactor (log2),[59],4.29
same,PRISMA enrichment of interactor (log2),[60],5.47
same,PRISMA enrichment of interactor (log2),[61],3.92
same,PRISMA enrichment of interactor (log2),[62],9.28
same,PRISMA enrichment of interactor (log2),[63],6.14
same,PRISMA enrichment of interactor (log2),[64],7.49
same,PRISMA enrichment of interactor (log2),[65],4.23
same,PRISMA enrichment of interactor (log2),[66],5.17
same,PRISMA enrichment of interactor (log2),[67],8.11
same,PRISMA enrichment of interactor (log2),[68],5.27 ± 0.89
same,PRISMA enrichment of interactor (log2),[69],7.02
same,PRISMA enrichment of interactor (log2),[70],6.86
same,PRISMA enrichment of interactor (log2),[71],4.67
same,PRISMA enrichment of interactor (log2),[72],5.16
same,PRISMA enrichment of interactor (log2),[73],5.51
same,PRISMA enrichment of interactor (log2),[74],4.64
same,PRISMA enrichment of interactor (log2),[75],5.08
same,PRISMA enrichment of interactor (log2),[76],8.66
same,PRISMA enrichment of interactor (log2),[77],4.89
same,PRISMA enrichment of interactor (log2),[78],4.41
same,PRISMA enrichment of interactor (log2),[79],8.69

# Part of the list above, set out differently.
binder	measurement	setting	value
WQGQVAKCTQPSQQG [RP11-140K17.3]	PRISMA enrichment of interactor (log2)	[1]	3.72
SDSSDTSEGFRLHLE [NAV2-AS2_2]	PRISMA enrichment of interactor (log2)	[7]	7.75
same	PRISMA enrichment of interactor (log2)	[9]	3.77
same	PRISMA enrichment of interactor (log2)	[11]	5.13
MVSRCLSEPVSLTAC [ABR]	PRISMA enrichment of interactor (log2)	[16]	5.59
same	PRISMA enrichment of interactor (log2)	[19]	4.66
same	PRISMA enrichment of interactor (log2)	[22]	5.34
same	PRISMA enrichment of interactor (log2)	[23]	4.91
GWPTASGWTPAARAC [THAP7]	PRISMA enrichment of interactor (log2)	[27]	4.23
same	PRISMA enrichment of interactor (log2)	[32]	4.96
same	PRISMA enrichment of interactor (log2)	[33]	4.66
QLRYTDRDFYFASIR [MIEF-MP]	PRISMA enrichment of interactor (log2)	[36]	5.89
VTEARQRFHLGEGER [RP1-206D15.6]	PRISMA enrichment of interactor (log2)	[45]	5.18
same	PRISMA enrichment of interactor (log2)	[48]	5.96
same	PRISMA enrichment of interactor (log2)	[55]	5.38
RLPQATARRGTPSRA [SLCO5A1]	PRISMA enrichment of interactor (log2)	[60]	5.47
same	PRISMA enrichment of interactor (log2)	[74]	4.64
same	PRISMA enrichment of interactor (log2)	[76]	8.66
same	PRISMA enrichment of interactor (log2)	[79]	8.69

# — the supplement of paper PMC10032668
